Results are given in words; binding and its absence hold for the method and conditions named. Binding can be weak; no strength is given.
How the values were obtained:
Test in all cases: two-hybrid; array-based yeast two-hybrid screens; each protein as bait (Gal4 DNA-binding domain) and as prey (Gal4 activation domain), N- and C-terminal fusions; bait-prey vector pairs pDEST32-pDEST22, pGBKT7g-pGADT7g, pGBKT7g-pGADCg, pGBKCg-pGADCg, pGBKCg-pGADT7g; ten configurations a pair; positives retested
M (bacteriophage lambda) = target: T1, M (bacteriophage lambda) (UniProt P03737)
T1 sequence: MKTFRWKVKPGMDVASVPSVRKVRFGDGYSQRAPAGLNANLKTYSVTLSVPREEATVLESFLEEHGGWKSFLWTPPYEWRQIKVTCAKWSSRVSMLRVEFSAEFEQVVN

[1] = target: T2, C protease (bacteriophage lambda) (UniProt P03711)
T2 sequence: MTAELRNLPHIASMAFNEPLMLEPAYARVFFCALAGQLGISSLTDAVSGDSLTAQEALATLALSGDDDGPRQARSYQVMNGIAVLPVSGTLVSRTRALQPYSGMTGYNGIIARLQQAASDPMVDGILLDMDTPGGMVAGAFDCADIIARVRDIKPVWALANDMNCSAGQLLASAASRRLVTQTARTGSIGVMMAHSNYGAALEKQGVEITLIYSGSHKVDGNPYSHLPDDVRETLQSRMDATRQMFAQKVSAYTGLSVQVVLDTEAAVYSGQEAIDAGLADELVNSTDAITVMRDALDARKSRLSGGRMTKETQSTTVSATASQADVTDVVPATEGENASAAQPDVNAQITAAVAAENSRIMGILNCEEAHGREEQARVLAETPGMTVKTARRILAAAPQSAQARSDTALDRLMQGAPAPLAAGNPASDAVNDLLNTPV

[2] = target: T3, DNA packaging protein A (bacteriophage lambda) (UniProt P03708)
T3 sequence: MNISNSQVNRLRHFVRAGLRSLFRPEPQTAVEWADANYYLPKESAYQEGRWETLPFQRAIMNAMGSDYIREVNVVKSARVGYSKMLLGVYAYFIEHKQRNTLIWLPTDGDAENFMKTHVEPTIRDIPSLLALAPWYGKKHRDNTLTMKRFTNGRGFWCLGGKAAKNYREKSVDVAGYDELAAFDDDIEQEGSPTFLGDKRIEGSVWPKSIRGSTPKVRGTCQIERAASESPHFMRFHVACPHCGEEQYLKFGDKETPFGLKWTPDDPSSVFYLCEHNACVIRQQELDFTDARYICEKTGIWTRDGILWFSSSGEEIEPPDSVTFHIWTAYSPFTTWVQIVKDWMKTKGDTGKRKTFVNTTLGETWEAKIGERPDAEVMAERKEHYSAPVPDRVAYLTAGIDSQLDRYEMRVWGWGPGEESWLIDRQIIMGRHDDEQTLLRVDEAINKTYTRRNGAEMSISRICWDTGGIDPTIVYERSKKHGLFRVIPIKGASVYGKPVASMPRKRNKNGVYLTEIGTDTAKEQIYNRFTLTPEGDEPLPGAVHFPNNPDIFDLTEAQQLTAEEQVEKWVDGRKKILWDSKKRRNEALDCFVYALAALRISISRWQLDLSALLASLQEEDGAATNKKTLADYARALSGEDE

[3] = target: T4, major capsid protein E (bacteriophage lambda) (UniProt P03713)
T4 sequence: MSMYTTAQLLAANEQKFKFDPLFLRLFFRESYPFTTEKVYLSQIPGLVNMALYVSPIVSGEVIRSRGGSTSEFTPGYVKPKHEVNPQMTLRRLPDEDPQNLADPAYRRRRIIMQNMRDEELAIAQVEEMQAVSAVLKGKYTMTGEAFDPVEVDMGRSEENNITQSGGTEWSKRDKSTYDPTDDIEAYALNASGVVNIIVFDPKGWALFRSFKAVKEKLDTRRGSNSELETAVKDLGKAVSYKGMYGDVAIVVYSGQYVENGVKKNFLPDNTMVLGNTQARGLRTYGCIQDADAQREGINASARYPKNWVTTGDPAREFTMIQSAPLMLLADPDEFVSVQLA

[4] = target: T5, RexB (bacteriophage lambda) (UniProt P03759)
T5 sequence: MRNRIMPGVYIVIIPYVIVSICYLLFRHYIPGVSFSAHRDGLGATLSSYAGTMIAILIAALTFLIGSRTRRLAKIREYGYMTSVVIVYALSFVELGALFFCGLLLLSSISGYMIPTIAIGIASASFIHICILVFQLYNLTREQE

U (bacteriophage lambda) = target: T6, U (bacteriophage lambda) (UniProt P03732)
T6 sequence: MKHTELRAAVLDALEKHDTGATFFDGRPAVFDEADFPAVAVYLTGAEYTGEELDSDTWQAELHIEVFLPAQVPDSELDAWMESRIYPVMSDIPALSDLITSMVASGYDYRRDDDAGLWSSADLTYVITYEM

[5] = target: Ea8.5 (bacteriophage lambda)
[6] = target: Orf35 (bacteriophage lambda)
[7] = target: NinI (Ser/Thr protein phosphatase) (bacteriophage lambda)
[8] = target: Orf63 (bacteriophage lambda)

Orf35 (bacteriophage lambda)
binding (M (bacteriophage lambda)): binds

Orf79 (bacteriophage lambda)
binding [1]: binds | binding [2]: binds

scaffolding protein Nu3 (bacteriophage lambda)
binding (M (bacteriophage lambda)): binds | binding [3]: binds

Orf78 (bacteriophage lambda)
binding [4]: binds | binding (U (bacteriophage lambda)): binds

B1: Integrase (Int) (protein, UniProt P03700 1-356)
chain: MGRRRSHERRDLPPNLYIRNNGYYCYRDPRTGKEFGLGRDRRIAITEAIQANIELFSGHKHKPLTARINSDNSVTLHSWLDRYEKILASRGIKQKTLINYMSKIKAIRRGLPDAPLEDITTKEIAAMLNGYIDEGKAASAKLIRSTLSDAFREAIAEGHITTNHVAATRAAKSEVRRSRLTADEYLKIYQAAESSPCWLRLAMELAVVTGQRVGDLCEMKWSDIVDGYLYVEQSKTGVKIAIPTALHIDALGISMKETLDKCKEILGGETIIASTRREPLSSGTVSRYFMRARKASGLSFEGDPPTFHELRSLSARLYEKQISDKFAQHLLGHKSDTMASQYRDDRGREWDKIEIK
binding [5]: binds | binding [6]: binds

B2: tail fiber protein Tfa (protein, UniProt P03740 1-194)
chain: MAFRMSEQPRTIKIYNLLAGTNEFIGEGDAYIPPHTGLPANSTDIAPPDIPAGFVAVFNSDEASWHLVEDHRGKTVYDVASGDALFISELGPLPENFTWLSPGGEYQKWNGTAWVKDTEAEKLFRIREAEETKKSLMQVASEHIAPLQDAADLEIATKEETSLLEAWKKYRVLLNRVDTSTAPDIEWPAVPVME
binding [5]: binds

B3: tail fiber protein Stf (protein, UniProt P03740 1-194)
chain: MAFRMSEQPRTIKIYNLLAGTNEFIGEGDAYIPPHTGLPANSTDIAPPDIPAGFVAVFNSDEASWHLVEDHRGKTVYDVASGDALFISELGPLPENFTWLSPGGEYQKWNGTAWVKDTEAEKLFRIREAEETKKSLMQVASEHIAPLQDAADLEIATKEETSLLEAWKKYRVLLNRVDTSTAPDIEWPAVPVME
binding [5]: binds

B4: antiterminator Q (protein, UniProt P03047 1-207)
chain: MRLESVAKFHSPKSPMMSDSPRATASDSLSGTDVMAAMGMAQSQAGFGMAAFCGKHELSQNDKQKAINYLMQFAHKVSGKYRGVAKLEGNTKAKVLQVLATFAYADYCRSAATPGARCRDCHGTGRAVDIAKTELWGRVVEKECGRCKGVGYSRMPASAAYRAVTMLIPNLTQPTWSRTVKPLYDALVVQCHKEESIADNILNAVTR
binding [5]: binds | binding [7]: binds | binding [8]: binds

B5: antiterminator N (protein, UniProt P03045 1-107)
chain: MDAQTRRRERRAEKQAQWKAANPLLVGVSAKPVNRPILSLNRKPKSRVESALNPIDLTVLAEYHKQIESNLQRIERKNQRTWYSKPGERGITCSGRQKIKGKSIPLI
binding [7]: binds | binding [8]: binds

B6: CII (protein, UniProt P03042 1-97)
chain: MVRANKRNEALRIESALLNKIAMLGTEKTAEAVGVDKSQISRWKRDWIPKFSMLLAVLEWGVVDDDMARLARQVAAILTNKKRPAATERSEQIQMEF
binding [6]: binds

B7: K (protein, UniProt P03729 1-199)
chain: MSPEDWLQAEMQGEIVALVHSHPGGLPWLSEADRRLQVQSDLPWWLVCRGTIHKFRCVPHLTGRRFEHGVTDCYTLFRDAYHLAGIEMPDFHREDDWWRNGQNLYLDNLEATGLYQVPLSAAQPGDVLLCCFGSSVPNHAAIYCGDGELLHHIPEQLSKRERYTDKWQRRTHSLWRHRAWRASAFTGIYNDLVAASTFV
binding [6]: binds

B8: P (protein, UniProt P03689 1-233)
chain: MKNIAAQMVNFDREQMRRIANNMPEQYDEKPQVQQVAQIINGVFSQLLATFPASLANRDQNEVNEIRRQWVLAFRENGITTMEQVNAGMRVARRQNRPFLPSPGQFVAWCREEASVTAGLPNVSELVDMVYEYCRKRGLYPDAESYPWKSNAHYWLVTNLYQNMRANALTDAELRRKAADELVHMTARINRGEAIPEPVKQLPVMGGRPLNRAQALAKIAEIKAKFGLKGASV
binding [8]: binds

B9: Rz1 (protein, UniProt Q37935 1-60)
chain: MLKLKMMLCVMMLPLVVVGCTSKQSVSQCVKPPPPPAWIMQPPPDWQTPLNGIISPSERG
binding [8]: binds
